Reference: publication PMC5094555, “Human Mitochondrial Cytochrome b Variants Studied in Yeast: Not All Are Silent Polymorphisms” (Human Mutation, 2016)

Amino acid sequences for entries named in this document (tags omitted). A change or cut given only in a name is not applied to a line headed by its entry.
UniProt P00157: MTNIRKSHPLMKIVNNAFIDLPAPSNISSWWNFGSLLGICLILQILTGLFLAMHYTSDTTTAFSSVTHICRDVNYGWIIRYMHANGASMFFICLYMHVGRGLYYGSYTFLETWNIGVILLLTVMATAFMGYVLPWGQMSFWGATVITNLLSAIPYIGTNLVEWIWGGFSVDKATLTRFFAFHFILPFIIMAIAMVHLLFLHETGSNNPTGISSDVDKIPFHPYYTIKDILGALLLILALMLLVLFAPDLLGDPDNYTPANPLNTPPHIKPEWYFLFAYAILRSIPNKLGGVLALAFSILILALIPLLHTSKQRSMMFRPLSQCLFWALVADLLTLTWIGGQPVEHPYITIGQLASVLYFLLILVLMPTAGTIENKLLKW

Target: bovine complex III (Bos taurus, UniProt P00157)
Assay: biochemical

- IC50: 24 ± 5 µM
Compound: CN(C)CCCN1c2ccccc2CCc2ccc(Cl)cc21 [clomipramine]
